We go through 40 compounds from article PMC12040169 (PLOS Biology, 2025).

Some of the results follow.

This assay relates to T1, CTL2-GFP (C. trachomatis L2/434/Bu, GFP-expressing).
T1 construct: L2/434/Bu, GFP-expressing
Also noted: species or system HeLa; Intracellular C. trachomatis growth in HeLa cells, bulk GFP fluorescence relative to DMSO. The settings on record: bulk GFP, single well; 28.5 h, 10 µM; inhibitor.
For the compound `CC(=O)Nc1cccc(-c2ccc(C(=O)NCc3ccc(F)cc3)c(N3CCN(C(=O)c4ccco4)CC3)n2)c1` [CBK106012], the “% of control remaining” value turned out to be 107.066%.

For the compound `CCc1nn2c(=O)cc(CN3CCN(C(=O)c4cccs4)CC3)nc2s1` [CBK306474], the “% of control remaining” value came to 131.133%. Consider `Cc1cccnc1C(NC(=O)C1CCN(C(=O)N2CCCC2)CC1)c1cccs1` (stereo not shown) [CBK060124], for which the “% of control remaining” value worked out at 157.346%.

On to `O=S(=O)(NC1CCCC1)c1cccc(-c2nnc(-c3ccccc3)o2)c1` [CBK265716], for which the “% of control remaining” value stood at 98.8634%. Then `CCc1ccc(NC(=O)N2CCCCC2CCn2ccnc2)cc1` (stereo not shown) [CBK307453], with 128.874%. On to `S=C(Nc1ccccc1Cl)Nc1ccccc1-n1cccc1` [CBK018806], for which the “% of control remaining” value turned out to be 117.06%.

For the compound `COCC(=O)N[C@H]1C[C@H]2C(=O)Nc3ccccc3C(=O)N2C1` [CBK289353], the “% of control remaining” value is on record as 108.507%. Then `CN(C(=O)C1CCN(C(=S)NCc2ccccc2)CC1)C(c1ccccc1)c1ccccn1` (stereo not shown) [CBK060476], with 115.418%; and `N#Cc1ccc(CNC(=O)N2CCCC(CO)C2)cc1` (stereo not shown) [CBK156043], with 119.871%; and `CN1CCC(N2C[C@H](O)C[C@H]2c2nc(-c3ccc4c(c3)OCO4)no2)CC1` [CBK288931], with 131.384%. As for `O=C(O)CCCn1cc(NC(=O)c2ccccc2Br)cn1` [CBK270100], the figure is 141.766%; as for `O=c1[nH]c2n[nH]c(=O)n2c2c(-c3ccccc3)c[nH]c12` [CBK288054], 138.201%. Then `CCCC(C(=O)O)N1C(=O)C(=Cc2ccc(-c3ccc(C(=O)OCC)cc3)o2)SC1=S` (stereo not shown) [CBK296983], with 172.605%. For the compound `Cc1ccc(OCC(=O)Nc2ccccc2CO)cc1` [CBK263600], the “% of control remaining” value was 100%. As for `CN(C)CCCOc1ccc2c(c1)Sc1ccccc1CC2=O` [CBK058002], the figure is 117.747%; as for `COc1ccccc1NCC(=O)n1nc(C)cc1C` [CBK263879], 102.76%.

`COc1ccc(S(=O)(=O)Nc2nc(C)c(C(=O)Nc3ccc(F)cc3)s2)cc1OC` [CBK050538]: the “% of control remaining” value was 121.809%. As for `CC(C)Cn1c(SCC(=O)N2CCNC2=O)nnc1-c1ccco1` [CBK295175], the figure is 127.281%.

On to `CCNC(=O)N1CCC[C@@H](O)[C@H](NC(=O)c2ccc(OC)cc2)C1` [CBK289066], for which the “% of control remaining” value was 105.49%. Then `CC(C)c1c(N)nc(SCc2ccccc2)nc1Cl` [CBK016721], with 104.758%; and `CC(C)N1CCC(N(C)Cc2c[nH]nc2C(C)(C)C)CC1` [CBK283002], with 153.327%; and `Nc1ccc(/C=C/c2cccc(C(=O)O)n2)cc1` [CBK267711], with 150.944%. As for `Cn1c(=O)c2c(nc(CN3CCOCC3)n2CCc2ccccc2)n(C)c1=O` [CBK269264], the figure is 137.435%; as for `O=S(=O)(c1ccc(C(F)(F)F)cc1Cl)N1CCN(Cc2cccc3cccnc23)CC1` [CBK063075], 98.5255%. As for `CC(=O)Nc1cccc(NCc2csc(C3CCCC3)n2)c1` [CBK304874], the figure is 103.639%. As for `Cc1cccnc1CN1CCN(C(=O)NCCSc2nncn2C)CC1` [CBK306949], the “% of control remaining” value came out at 138.697%. Turning to `CC(C)(C)NC(=O)CCn1c(-c2cccnc2)cc2cccnc21` [CBK282691], the “% of control remaining” value is reported as 94.5567%. Then `Cc1ccc(-c2c[nH]c([C@@H]3COCCN3Cc3c[nH]c4ccccc34)n2)cc1` [CBK289308], with 101.173%; and `O=C(c1ccc2c(c1)CCO2)N1CCC(S(=O)(=O)c2ccc(-c3ccccc3)cc2)CC1` [CBK131957], with 76.194%. Then `CC(C)Oc1cccc(CNC(=O)c2ccc(C(C)(C)C)[nH]c2=O)c1` [CBK281415], with 108.186%; and `Cc1noc(C)c1NC(=O)c1ccncc1` [CBK200389], with 120.78%; and `CC(CC(=O)N1CCC(c2cc3cccnc3[nH]2)CC1)n1ccnc1` (stereo not shown) [CBK285028], with 102.424%. For the compound `O=C(O)c1ccc(Cl)c(-c2ccc(/C=N\Nc3ccc([N+](=O)[O-])cn3)o2)c1` [CBK263431], the “% of control remaining” value is 97.6352%. For the compound `CC1(COC(=O)N2CCC(OCc3cnc(-c4ccc(S(C)(=O)=O)cc4)cn3)CC2)COC1` [CBK172009], the “% of control remaining” value stood at 104.087%. As for `CCn1c2ccccc2c2cc(CN(CCN(C)C)Cc3ccccc3)ccc21` [CBK261924], the figure is 104.95%. Then `Cc1ccc2oc(CN3CCn4cnnc4C3)c(C)c2c1` [CBK283075], with 91.5339%; and `CC(C)(C)NC(=O)COc1ccc(CNc2ccc(C(=O)O)c(Cl)c2)cc1` [CBK287230], with 124.765%. With `Cc1ccc2c(c1)nc(CNC(=O)NCCc1nc(C)no1)n2C` [CBK305552], the “% of control remaining” value came to 122.828%. As for `CCOc1cc(/C=C/c2nc(O)c([N+](=O)[O-])c(=O)[nH]2)ccc1OCC(N)=O` [CBK267337], the figure is 162.913%; as for `O=C(O)CC1C(=O)NCCN1Cc1c(F)cccc1Cl` (stereo not shown) [CBK287157], 117.325%.
